Experimental data from article PMC9124216.

Molecular target: T1, HA-tagged CD151 (UniProt P48509)
T1 sequence: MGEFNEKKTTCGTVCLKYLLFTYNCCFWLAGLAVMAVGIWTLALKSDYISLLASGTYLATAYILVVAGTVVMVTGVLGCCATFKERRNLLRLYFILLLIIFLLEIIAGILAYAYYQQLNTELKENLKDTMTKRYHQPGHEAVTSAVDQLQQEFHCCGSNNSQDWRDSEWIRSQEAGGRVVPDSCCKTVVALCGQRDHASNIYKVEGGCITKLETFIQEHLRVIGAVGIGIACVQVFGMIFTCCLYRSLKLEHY
Experiment: co-IP; Flag-tagged ADAM15 and HA-tagged CD151 vectors cotransfected into A549 and H1299 cells for 48 h; immunoprecipitated using agarose beads with anti-Flag antibody; western blot

binding: binds
Substance: Integrin α6 (human (endogenous in A549 and H1299)) (receptor)

No constants are given. Whether binding was seen depends on the method and setting. In cells and extracts the contact can be indirect. Binding can be weak; no strength is given. Sequences can lack the tags named with a protein.
